In publication PMC3407131, “Annexin A2 Is a Natural Extrahepatic Inhibitor of the PCSK9-Induced LDL Receptor Degradation” (PLoS ONE, 2012):
These are yes or no findings as the source states them, for the method shown.

The chains behind the UniProt entries cited, without tags or fusion partners. Where a name states a change or a piece, a line headed by the entry shows the natural chain unless it says otherwise. A line that says so, or that is headed by a name, gives the form on record, which may keep a tag or linker. Residues count along the entry.
UniProt Q8NBP7, residues 30-692: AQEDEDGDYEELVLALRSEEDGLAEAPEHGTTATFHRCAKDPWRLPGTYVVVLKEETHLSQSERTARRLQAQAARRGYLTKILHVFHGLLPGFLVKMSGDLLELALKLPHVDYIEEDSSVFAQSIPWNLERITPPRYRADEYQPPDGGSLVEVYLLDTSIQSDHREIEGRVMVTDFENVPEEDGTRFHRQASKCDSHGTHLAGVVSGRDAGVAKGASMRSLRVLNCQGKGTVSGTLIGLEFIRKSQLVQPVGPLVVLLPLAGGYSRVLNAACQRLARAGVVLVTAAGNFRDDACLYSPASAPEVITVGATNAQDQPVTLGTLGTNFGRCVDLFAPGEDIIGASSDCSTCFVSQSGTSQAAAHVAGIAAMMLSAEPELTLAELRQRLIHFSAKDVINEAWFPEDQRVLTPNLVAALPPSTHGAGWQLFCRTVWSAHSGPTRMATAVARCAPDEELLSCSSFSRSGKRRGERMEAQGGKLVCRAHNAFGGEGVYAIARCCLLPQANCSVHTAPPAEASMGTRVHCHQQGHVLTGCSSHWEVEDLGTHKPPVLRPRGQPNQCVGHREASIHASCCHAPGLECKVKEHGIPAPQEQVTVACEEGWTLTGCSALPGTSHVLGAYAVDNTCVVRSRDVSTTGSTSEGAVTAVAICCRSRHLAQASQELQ
small 25 aa AnxA2 peptide (residues 73–97) (P07355, residues 73-97): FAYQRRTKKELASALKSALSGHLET
intermediate length AnxA2 peptide (49–97) incorporating 4 alanine substitutions (77AATAA81) (P07355, form named): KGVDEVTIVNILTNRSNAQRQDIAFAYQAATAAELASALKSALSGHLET

Molecular target: biotin-labeled human PCSK9 protein (residues 30–692) (human) (UniProt Q8NBP7)
Assay: AlphaScreen or HTRF; competition: biotin-PCSK9 (15 nM) and His-LDLR ectodomain (15 nM) mixed with increasing AnxA2 peptide, 60 min at 20°C in 25 mM Hepes pH 7.4, 100 mM NaCl, 0.5 mM CaCl2, 0.1% BSA; streptavidin donor and nickel chelate acceptor beads, overnight at 20°C; both purified

binding | Substance
no binding | intermediate length AnxA2 peptide (49–97) incorporating 4 alanine substitutions (77AATAA81) (from UniProt P07355 49-97)
no binding | small 25 aa AnxA2 peptide (residues 73–97) (from UniProt P07355 73-97)
